Consider one compound from publication PMC6191125, “Peptidoglycan potentiates the membrane disrupting effect of the carboxyamidated form of DMS-DA6, a Gram-positive selective antimicrobial peptide isolated from Pachymedusa dacnicolor skin” (PLoS ONE, 2018).

Residues, ends and D or L forms follow the SMILES beside them.

The series relates to DMPG LUVs + PGN. The series can be described thus: Differential scanning calorimetry with DMPG LUVs + peptidoglycan. The note with it: DSC, DMPG LUVs + 0.02% (w/w) PGN. Set-up: species or system Staphylococcus aureus.

For the compound `CC[C@H](C)[C@H](NC(=O)CNC(=O)[C@H](Cc1c[nH]c2ccccc12)NC(=O)[C@@H](NC(=O)CN)C(C)C)C(=O)N[C@@H](C)C(=O)N[C@@H](CCCCN)C(=O)N[C@H](C(=O)N[C@@H](C)C(=O)NCC(=O)N[C@@H](CCCCN)C(=O)N[C@H](C(=O)N[C@@H](CC(C)C)C(=O)NCC(=O)N[C@@H](CC(N)=O)C(=O)N[C@H](C(=O)N[C@@H](CC(C)C)C(=O)N1CCC[C@H]1C(=O)N[C@@H](Cc1c[nH]cn1)C(=O)N[C@H](C(=O)N[C@@H](Cc1ccccc1)C(=O)N[C@@H](CO)C(=O)N[C@@H](CO)C(=O)N[C@@H](CC(N)=O)C(=O)N[C@@H](CCC(N)=O)C(=O)N[C@@H](CO)C(N)=O)C(C)C)[C@@H](C)CC)C(C)C)[C@@H](C)CC` [DMS-DA6-NH2] (H-GVWGIAKIAGKVLGNILPHVFSSNQS-NH2), the ΔHm1 is, setting by setting: (peptide to lipid ratio 1/25) 1.58 ± 0.096 kcal/mol; (peptide to lipid ratio 1/50) 2.53 ± 0.14 kcal/mol; (peptide to lipid ratio 1/100) 2.7 ± 0.22 kcal/mol. The ΔHm2 (peptide to lipid ratio 1/25) amounted to 0.884 ± 0.096 kcal/mol, the ΔHm2 (peptide to lipid ratio 1/50) came out at 1 ± 0.12 kcal/mol and the ΔHm2 (peptide to lipid ratio 1/100) came out at 1.72 ± 0.12 kcal/mol.
